Laboratory results: PubChem BioAssay AID602313 (National Center for Advancing Translational Sciences (NCATS), 2012)
Among all 390,000 compounds or so, about 760 (0.19%) were called active. The inconclusive results got no clear call from the source; some entries with a clear call stand among them for comparison. Calls come from the whole dose curve; as a rule, active = well fitted inhibition curve with a large enough effect; inconclusive = small, poorly fitted or top-dose-only effect; inactive = flat fitted curve, though single readings scatter. A potency beside an inconclusive call is a rough fit, not a confirmed value.
Potency is the fitted concentration of half-maximal effect.

Assay: qHTS for Inhibitors of Vif-A3F Interactions: qHTS; note: nearly all actives have a fitted effect of over 65% in size
Conditions: HeLa A3F-eYFP + Vif (tagged APOBEC3F with the HIV-1 protein that degrades it), YFP fluorescence increase; series mostly up to 46.1 µM
Method in brief: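 HeLa cells stably expressing Vif plus C-terminally eYFP-tagged A3F were seeded, incubated overnight at 37 deg C, dosed with compound, incubated overnight again at 37 deg C. Yellow fluorescence (Ex 488/Em 500-530) reported blocked Vif-mediated A3F-eYFP degradation.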
With `COc1cc(C(=O)Nc2cc3c(cc2C)n(C)c(=O)c(=O)n3C)cc(OC)c1OC` the Potency was “inactive”.
In the case of `Cn1c(N)c(C(=O)COC(=O)/C=C/c2ccc(OC(F)F)cc2)c(=O)n(C)c1=O`, the Potency is reported as inconclusive: 35.5 µM [inhibitor, single point].
With `Cc1ccc(NC(=O)c2sc3nc(-c4cc5ccccc5oc4=O)[nH]c(=O)c3c2C)c(C)c1` the Potency was inconclusive: 5.62 µM [inhibitor, single point].
With `N#Cc1ccc(C(=O)NC(=S)N2CCOCC2)cc1` the Potency was inconclusive: 11.2 µM [inhibitor, partial curve, poor fit].
With `Cc1ccccc1C(=O)NN1C(=O)CSC1=S` the Potency was inconclusive: 35.5 µM [inhibitor, single point].
With `Cc1cc(OCC(=O)NNC(=O)c2cccnc2)cc(C)c1Cl` the Potency was inconclusive: 35.5 µM [inhibitor, single point].
In the case of `CCOC(=O)CCCc1ccc(/C(C)=N/NC(=S)NC)cc1`, the Potency is reported as inconclusive: 22.4 µM [inhibitor, partial curve, poor fit].
In the case of `Cc1cc(C)cc(C(=O)NC(=S)Nc2ccc(-c3cc4ccccc4oc3=O)cc2)c1`, the Potency is reported as inconclusive: 20 µM [inhibitor, single point].
With `CSc1nc2ccccc2c(=O)n1C1CCCCC1` the Potency was inconclusive: 3.16 µM [inhibitor, full curve, poor fit].
With `O=C(CCN1C(=O)/C(=C/c2cccs2)SC1=S)N1CCCCC1` the Potency was “inactive”.
With `NS(=O)(=O)c1ccc(CCNC(=O)CNS(=O)(=O)c2cccc(Br)c2)cc1` the Potency was “inactive”.
In the case of `O=C(NCCCCc1ccccc1)c1cccc(NC(=O)C2CC2)c1`, the Potency is reported as “inactive”.
In the case of `COC(=O)c1ccc(NC(=O)CSc2ccccc2)cc1`, the Potency is reported as “inactive”.
For `Cc1cc2c(c(=O)n1Cc1cccnc1)C(Cc1ccccc1)C(C#N)=C(N)O2` (stereo not given), the Potency was inconclusive: 5.62 µM [inhibitor, single point].
In the case of `CC(C)N1CCc2c(sc(NC(=O)c3ccc(S(=O)(=O)N4CCOCC4)cc3)c2C#N)C1`, the Potency is reported as active: 12.6 µM.
For `CCOC(=O)C1=C(C)N=c2s/c(=C\c3ccc(OCC(=O)O)c(OC)c3)c(=O)n2C1c1ccc(OC)cc1` (stereo not given), the Potency was “inactive”.
With `O=C(CSc1nc2ccccc2s1)CSc1nc2ccccc2s1` the Potency was “inactive”.
With `Cc1nnsc1C(=O)N/N=C/c1ccc2ccccc2c1O` the Potency was inconclusive: 22.4 µM [inhibitor, partial curve, poor fit].
With `CCC(C(=O)Nc1cc(-c2nc3cccnc3s2)ccc1C)c1ccccc1` (stereo not given) the Potency was “inactive”.
With `Cc1ccc(Cl)cc1NC(=O)Cn1c(=O)c2ccccc2n2nncc12` the Potency was “inactive”.
For `COC(=O)c1ccc(-c2csc(NC(=O)c3ccc(S(=O)(=O)N4CCc5ccccc5C4)cc3)n2)cc1`, the Potency was inconclusive: 2.51 µM [inhibitor, partial curve, poor fit].
With `Cc1ccc(N=Cc2cc(Cl)cc(Cl)c2O)nc1` the Potency was “inactive”.
In the case of `COc1ccc(/C=C2\SC(=S)N(CCCC(=O)Nc3cc(C)on3)C2=O)cc1OC`, the Potency is reported as “inactive”.
In the case of `CNC(=O)/C(C#N)=C/c1c(N2CCCCCC2)nc2ccccn2c1=O`, the Potency is reported as inconclusive: 35.5 µM [inhibitor, single point].
With `CCOc1cc(C2c3c(-c4ccc(Br)cc4)n[nH]c3C(=O)N2c2ccc(Cl)cc2)ccc1O` (stereo not given) the Potency was inconclusive: 35.5 µM [inhibitor, single point].
With `COC(=O)CN1C(=O)COc2ccc(S(=O)(=O)NCc3ccc(F)cc3)cc21` the Potency was inconclusive: 3.16 µM [inhibitor, single point].
With `O=C(Nc1ccc(-c2n[nH]c(=S)o2)cc1)c1ccccc1` the Potency was inconclusive: 35.5 µM [inhibitor, single point].
In the case of `NC(=O)COc1c(-c2ccc(Br)o2)oc2ccccc2c1=O`, the Potency is reported as inconclusive: 12.6 µM [inhibitor, partial curve, poor fit].
For `CN1CCN(C(CNC(=O)c2ccc(Br)o2)c2ccc(F)cc2)CC1` (stereo not given), the Potency was “inactive”.
For `O=C(Cn1nnc(-c2ccc(N3CCOCC3)cc2)n1)N1CCOCC1`, the Potency was “inactive”.
For `CCn1c(SCc2cccc(F)c2)nnc1-c1ccncc1`, the Potency was “inactive”.
With `Cc1cc(N2CCCC2)ccc1/C=C1/C(=O)N(C)C(=S)N1C` the Potency was active: 11.2 µM.
In the case of `Cc1cc(C)cc(NC(=O)/C(C#N)=C/c2cn(CC(=O)NCc3ccco3)c3ccccc23)c1`, the Potency is reported as inconclusive: 25.1 µM [inhibitor, partial curve, poor fit].
In the case of `O=C(/C=C/c1ccc(Br)o1)OCc1nc2ccsc2c(=O)[nH]1`, the Potency is reported as inconclusive: 35.5 µM [inhibitor, single point].
For `CCOC(=O)C1=C(Cc2ccc(OC)cc2)C(=O)c2ccccc2C1=O`, the Potency was inconclusive: 17.8 µM [inhibitor, partial curve, poor fit].
In the case of `Cc1cc(/C=C2\SC(=S)NC2=O)c(C)[nH]1`, the Potency is reported as inconclusive: 35.5 µM [inhibitor, single point].
In the case of `O=C(Nc1ccccc1)c1ccc(Br)c(S(=O)(=O)N2CCCCC2)c1`, the Potency is reported as “inactive”.
In the case of `Cc1cc(O)c2c(c1O)C(=O)[C@]13C(=C2O)C(=O)[C@@H]2[C@@H](O)[C@H]1[C@@H]1[C@H](O)[C@H]3C(=O)C3=C(O)c4c(O)cc(C)c(O)c4C(=O)[C@]312`, the Potency is reported as inconclusive: 7.94 µM [inhibitor, partial curve, poor fit].
In the case of `COc1ccc(-c2ccc(C#N)c(SCC(=O)Nc3sc4c(c3C#N)CCC4)n2)cc1OC`, the Potency is reported as inconclusive: 14.1 µM [inhibitor, partial curve, poor fit].
In the case of `COc1ccc(C(=O)N/N=C/c2ccc3cccc(OCc4ccccc4)c3n2)cc1`, the Potency is reported as “inactive”.
For `COc1ccccc1/C=C1\SC(=S)N(Nc2nc(C)cc(C)n2)C1=O`, the Potency was inconclusive: 17.8 µM [inhibitor, single point].
With `O=C1/C(=C/c2ccccc2)SC(=S)N1C1CCS(=O)(=O)C1` (stereo not given) the Potency was inconclusive: 22.4 µM [inhibitor, single point].
For `O=C(NC1CCSc2ccccc21)c1cc([N+](=O)[O-])ccc1N1CCOCC1` (stereo not given), the Potency was inconclusive: 35.5 µM [inhibitor, single point].
For `C=CCSC1=NN2CCS(=O)(=O)N=C2S1`, the Potency was inconclusive: 2.51 µM [inhibitor, partial curve, poor fit].
In the case of `N#C/C(=C/c1ccc([N+](=O)[O-])cc1)C(=O)Nc1ccccc1O`, the Potency is reported as inconclusive: 25.1 µM [inhibitor, single point].
In the case of `O=C(/C=C/c1cn(CC(O)CN2CCCCC2)c2ccccc12)c1cccs1` (stereo not given), the Potency is reported as inconclusive: 35.5 µM [inhibitor, single point].
For `COc1cc(Cl)c(C)cc1NC(=O)c1ccccc1-n1cnnn1`, the Potency was inconclusive: 35.5 µM [inhibitor, single point].
For `COCCN1CCN(c2c(C)c(C)nc3cc(-c4cccc(OC)c4)nn23)CC1`, the Potency was inconclusive: 3.16 µM [inhibitor, single point].
With `CCOCCCn1c(SCC(=O)Nc2ccc(C)cc2)nc2ccccc2c1=O` the Potency was “inactive”.
For `COc1ccc(/C=N/NC(=O)c2[nH]c3ccc(C)cc3c2-c2ccccc2)c(C(=O)O)c1OC`, the Potency was inconclusive: 14.1 µM [inhibitor, partial curve, poor fit].
In the case of `CCN(CC)Cc1nc2c(c(=O)[nH]1)C(CC)(CC)Cc1ccccc1-2`, the Potency is reported as inconclusive: 3.16 µM [inhibitor, full curve].
With `CC(=O)N1CCCN(Cc2cn(-c3cccc(C)c3)nc2-c2cccc(F)c2)CC1` the Potency was inconclusive: 35.5 µM [inhibitor, single point].
With `CCCCN(C(=O)c1ccc(-c2ccc(Cl)cc2)o1)c1c(N)n(CCCC)c(=O)[nH]c1=O` the Potency was inconclusive: 22.4 µM [inhibitor, single point].
With `S=c1[nH]nc(-c2cc(-c3ccccc3)n[nH]2)n1/N=C/c1c(Cl)cccc1Cl` the Potency was “inactive”.
In the case of `CCCCN1C(=O)/C(=C/C=C2/CC(C)(C)CN2C)SC1=S`, the Potency is reported as inconclusive: 5.62 µM [inhibitor, single point].
In the case of `Cc1ccc(S(=O)(=O)N2CCC(C(=O)Nc3ccccc3N3CCCC3)CC2)c(C)c1`, the Potency is reported as inconclusive: 6.31 µM [inhibitor, partial curve, poor fit].
In the case of `NS(=O)(=O)c1ccc(NC(=O)COC(=O)c2cc(Cl)ccc2[N+](=O)[O-])cc1`, the Potency is reported as inconclusive: 20 µM [inhibitor, partial curve, poor fit].
With `CCCCCC(=O)NC(=S)Nc1ccc(Cl)cn1` the Potency was inconclusive: 11.2 µM [inhibitor, partial curve, poor fit].
With `Cc1ccc(NC2Sc3ccccc3NC2=O)cc1` (stereo not given) the Potency was inconclusive: 10 µM [inhibitor, partial curve, poor fit].
In the case of `Cc1cc(C)nc(NN=CC2=C(N3CCOCC3)/C(=C/c3ccc(Cl)cc3)CC2)n1`, the Potency is reported as inconclusive: 20 µM [inhibitor, single point].
With `Cc1cccc2sc(NC(=O)C3CCCN(S(=O)(=O)c4cccc5nonc45)C3)nc12` (stereo not given) the Potency was inconclusive: 35.5 µM [inhibitor, single point].
In the case of `CCc1noc(-c2ccc(N3CCCCC3C)c([N+](=O)[O-])c2)n1` (stereo not given), the Potency is reported as “inactive”.
With `COc1ccc(-c2csc(NC(=O)CN3C(=O)NC4(CCCC4)C3=O)n2)cc1` the Potency was inconclusive: 22.4 µM [inhibitor, single point].
In the case of `CCOC(=O)c1sc2cc([N+](=O)[O-])cc(SCC(C)C)c2c1N`, the Potency is reported as inconclusive: 3.98 µM [inhibitor, full curve, poor fit].
In the case of `Cc1cccc(N=Nc2c(O)[nH]c3ccc(F)cc23)c1`, the Potency is reported as inconclusive: 22.4 µM [inhibitor, partial curve, poor fit].
